Assay results: patent publication US20200190043A1, “2-[[5-(TRIFLUOROMETHYL)-1,2,4-OXADIAZOL-3-YL]ARYLOXY](THIO)ACETAMIDES FOR COMBATING PHYTOPATHOGENIC FUNGI” (BASF SE, priority 2017, published 2020)
Some entries share one result that the patent states for a list of compounds.

Legend:
Assay type in all cases: in vivo
[1] = test system: Phakopsora pachyrhizi; assay: Protective control of soy bean rust on soy beans (glass house trial); settings: 63 ppm active compound, sprayed 2 days before inoculation (protective), soy bean seedlings; untreated plants 90% diseased leaf area
[2] = test system: Puccinia recondita; assay: Preventative control of brown rust on wheat (glass house trial); settings: 63 ppm active compound, wheat seedlings, untreated plants 90% diseased leaf area
Method: (§1) A mixture was prepared of acetone and/or dimethylsulfoxide and the wetting agent/emulsifier Wettol, which is based on ethoxylated alkylphenoles, in a relation (volume) solvent-emulsifier of 99 to 1 was added to the compound to give a total of 5 ml. Water was then added to a total volume of 100 ml. This stock solution was diluted with the described solvent-emulsifier-water mixture to the given concentration. II.4) Preventative Control of Brown Rust on Wheat Caused by Puccinia recondita The first two developed leaves of pot-grown wheat seedling were sprayed to run-off with an aqueous suspension, containing the concentration of active ingredient or their mixture as described below. The next day the plants were inoculated with spores of Puccinia recondita. To ensure the success the artificial inoculation, the plants were transferred to a humid chamber without light and a relative humidity of 95 to 99% and 20 to 24° C. for 24 hours. Then the trial plants were cultivated for 6 days in a greenhouse chamber at 20 to 24° C. and a relative humidity between 65 and 70%. The extent of fungal attack on the leaves was visually assessed as % diseased leaf area.

[3] = test system: Puccinia recondita; assay: Curative control of brown rust on wheat (glass house trial); settings: 63 ppm active compound, wheat seedlings, untreated plants 90% diseased leaf area
Method: as §1, with “concentration. II.3) Curative” for “concentration. II.4) Preventative”, “were dusted” for “were sprayed to run-off with an aqueous suspension, containing the concentration of active ingredient or their mixture as described below. The next day the plants were inoculated”, “hours. The next day the plants were cultivated for 3 days in a greenhouse chamber at 20 to 24° C. and a relative humidity between 65 and 70%. Then the plants were sprayed to run-off with an aqueous suspension, containing the concentration of active ingredient or their mixture as described below. The plants could air-dry.” for “hours.”, “for 8” for “for 6”

[4] = test system: Phakopsora pachyrhizi; assay: Curative control of soy bean rust on soy beans (glass house trial); settings: 63 ppm active compound, sprayed after inoculation (curative), soy bean seedlings; untreated plants 90% diseased leaf area

SMILES | diseased leaf area [1] | diseased leaf area [2] | diseased leaf area [3] | diseased leaf area [4]
CNC(=O)C(C)Oc1ccc(-c2noc(C(F)(F)F)n2)cc1 (racemic) [I-14] | at most 2% | at most 13% | at most 9% | at most 12%
CC(Oc1ccc(-c2noc(C(F)(F)F)n2)cc1)C(=O)N(C)C (racemic) [I-15] | at most 2% | – | – | –
CN(C)C(=O)C(Br)(Oc1ccc(-c2noc(C(F)(F)F)n2)cc1)C(F)(F)F (racemic) [I-19] | at most 2% | – | – | –
CNC(=O)C(F)(F)Oc1ccc(-c2noc(C(F)(F)F)n2)cc1 [I-1, 2,2-difluoro-N-methyl-2-[4-[5-(trifluoromethyl)-1,2,4-oxadiazol-3-yl]phenoxy]acetamide] | at most 2% | at most 13% | at most 9% | at most 12%
CN(C)C(=O)C(F)(F)Oc1ccc(-c2noc(C(F)(F)F)n2)cc1 [I-2] | at most 2% | – | – | –
CN(C(=O)C(F)(F)Oc1ccc(-c2noc(C(F)(F)F)n2)cc1)C1CC1 [I-3] | at most 2% | at most 13% | – | –
O=C(NC1CC1)C(F)(F)Oc1ccc(-c2noc(C(F)(F)F)n2)cc1 [I-4] | at most 2% | at most 13% | at most 9% | at most 12%
CC(C)NC(=O)C(F)(F)Oc1ccc(-c2noc(C(F)(F)F)n2)cc1 [I-5] | at most 2% | – | at most 9% | at most 12%
O=C(NC1CCCCCC1)C(F)(F)Oc1ccc(-c2noc(C(F)(F)F)n2)cc1 [I-6] | at most 2% | – | – | –
CCN(C)C(=O)C(F)(F)Oc1ccc(-c2noc(C(F)(F)F)n2)cc1 [I-7] | at most 2% | – | – | –
O=C(NC1CCC1)C(F)(F)Oc1ccc(-c2noc(C(F)(F)F)n2)cc1 [I-8] | at most 2% | – | – | at most 12%
CC(C)(C)NC(=O)C(F)(F)Oc1ccc(-c2noc(C(F)(F)F)n2)cc1 [I-9] | at most 2% | – | – | –
CN(C)C(=O)COc1ccc(-c2noc(C(F)(F)F)n2)cc1 [I-10] | at most 2% | at most 13% | at most 9% | at most 12%
CNC(=O)COc1ccc(-c2noc(C(F)(F)F)n2)cc1 [I-11] | at most 2% | at most 13% | – | at most 12%
CNC(=O)C(C)(C)Oc1ccc(-c2noc(C(F)(F)F)n2)cc1 [I-12] | at most 2% | at most 13% | – | at most 12%
CN(C)C(=O)C(C)(C)Oc1ccc(-c2noc(C(F)(F)F)n2)cc1 [I-13] | at most 2% | – | – | at most 12%
O=C(NCC(F)(F)F)C(F)(F)Oc1ccc(-c2noc(C(F)(F)F)n2)cc1 [I-16] | at most 2% | – | – | at most 12%
FC(F)(Oc1ccc(-c2noc(C(F)(F)F)n2)cc1)C(=S)NC1CC1 [I-17] | at most 2% | at most 13% | – | –
CNC(=S)C(F)(F)Oc1ccc(-c2noc(C(F)(F)F)n2)cc1 [I-18] | at most 2% | – | – | at most 12%
